± gives the standard deviation. The entries are a selection whose mix differs from that of the whole data set. Many entries were measured with a wide error.

This test concerns MILI (PIWIL2) piRISC loaded with Kctd7 piRNA (26 nt). The test is described as follows: pre-steady-state target cleavage rate (min^-1); MIWI and MILI are mouse PIWI proteins and EfPiwi is from a freshwater sponge; tags in brackets are library labels; higher = faster piRNA-guided slicing of the target. Conditions: guide: Kctd7 piRNA 5'p-UGUUAAUCUCUCAGAGAAGGUGACAG; auxiliary factor: 500 nM mouse GTSF1. The method, then:
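Cleave-'n-Seq: a library of target RNAs (target site embedded in constant flanks, ACAGCATTCCGCGTTAGTGATATCCG... 5' flank; DNA-blocked outside the site) at 0.1 nM was incubated with 1 nM active mouse MILI or MIWI piRISC (synthetic 5'-monophosphorylated piRNA guide) with or without 500 nM mouse GTSF1 at 33 °C for 1 min to 16 h. Uncleaved targets were sequenced and normalised to non-target controls, and the pooled three trials were fitted to a burst-and-steady-state model to give the pre-steady-state cleavage rate (min^-1; k3 is constrained to at most 1e-4). Sequence is the target site only; target names encode pairing extent (gX:gY) and contiguous / 1-mismatch / 2-mismatch / bulge geometry. Fits with R² ≤ 0 are excluded.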
On to UAGUCUGUCUCCUUCUCUGAGAGAUUAUGA, for which the “pre-steady-state target cleavage rate” value came to 0.0111 ± 0.0041.

As for UAGUGUGUCACCUACUCUGAGAGAUUUUGA, the “pre-steady-state target cleavage rate” value stood at 0.0414 ± 0.016.

As for UAGUGUGUCACCUUCUCUGAGAGAUUCACA, the “pre-steady-state target cleavage rate” value worked out at 0.239 ± 0.049.

UAGUGACUCACCUUCUCUGAGAGAUUAAACA: the “pre-steady-state target cleavage rate” value stood at 0.251 ± 0.035.

On to UAGUGACAGACCUUCUCUCUGAGAUUAAGA, for which the “pre-steady-state target cleavage rate” value was found to be 0.000531 ± 0.015.

Consider UAGUGAGUGUCCUUCUCUGAGAGAUAUUGA, for which the “pre-steady-state target cleavage rate” value was 0.000691 ± 0.0074.

UAGUGACAGUGGUACUCUGAGAGAUUAACA: the “pre-steady-state target cleavage rate” value turned out to be 0.000403 ± 0.0099.

In the case of UAGUGACAGACCUUCUCUGGAGAUUAACA, the “pre-steady-state target cleavage rate” value worked out at 0.00288 ± 0.0042.

UAGUGACAGUGCUAGUCUGAGAGAUUAACA: the “pre-steady-state target cleavage rate” value amounted to 0.00192 ± 0.0045.

Take UAGUGACAGACCUUCUCCUGAGAGAUUAACA: the “pre-steady-state target cleavage rate” value amounted to 0.00145 ± 0.0069.

For the sequence “UAGUGACAGUGGAAGUCUGAGAGAUUAACC [g2:g15:cont:t1C]”, the “pre-steady-state target cleavage rate” value was 0.000685 ± 0.0066.

As to UAGUGAGUCACCUUGUCUGAGAGAUAUUGA, the “pre-steady-state target cleavage rate” value turned out to be 0.00132 ± 0.0082.

UAGUGACAGUGGUUCUCUGAGAGCUUAACA: the “pre-steady-state target cleavage rate” value stood at 0.000865 ± 0.0061.

With UAGUGACAGUGGAAGACAGAGACAUUAACA, the “pre-steady-state target cleavage rate” value amounted to 0.000102 ± 0.06.

As to UAGUGACAGUGCUUCUCUGAUGAGAUUAACA, the “pre-steady-state target cleavage rate” value is 0.000534 ± 0.0058.

In the case of UAGUGACUCACCUUCUCUGAGUGAAUAACA, the “pre-steady-state target cleavage rate” value is 0.00121 ± 0.0077.

As to UAGUGACAGUGGAUCUUUGAGAGAUUAACA, the “pre-steady-state target cleavage rate” value was determined as 0.00031 ± 0.0099.

As to UAGUGACAGUGGAUCUCUGAGUGAUUAACA, the “pre-steady-state target cleavage rate” value was found to be 0.000112 ± 0.029.

With UAGUGACAGAGCUUCUCUGAGAGAUUAUGA, the “pre-steady-state target cleavage rate” value was 0.00158 ± 0.0075.

For UAGUCUGUCUCCUUCUCUGAGAGAUUUUGA, the “pre-steady-state target cleavage rate” value came to 0.00342 ± 0.0038.

Consider UAGUGACAGUCCUUCUCUGAGUGAUUAUCA, for which the “pre-steady-state target cleavage rate” value is 0.00057 ± 0.0066.

Regarding UAGUGAGUCACCUUCUCUGAGAGAUUCAACA, the “pre-steady-state target cleavage rate” value turned out to be 0.279 ± 0.054.

For the sequence UAGUGACAGUCCUUCUCUCAGAGAAUAACA, the “pre-steady-state target cleavage rate” value came to 0.000691 ± 0.011.

UAGUGACACACCUUCUCUCAGACAUUAACA: the “pre-steady-state target cleavage rate” value was found to be 0.0383 ± 0.011.

UAGUGACAGUGGAAGACUGUCAGAUUAACA: the “pre-steady-state target cleavage rate” value came out at 0.000366 ± 0.028.

With UAGUGACUCACCAUCUCUGAGAGAUUUUGA, the “pre-steady-state target cleavage rate” value was 0.00175 ± 0.0052.

Take UAGUGUGUGUCCUUCUCUGAGAGAUUAUGA: the “pre-steady-state target cleavage rate” value is 0.00211 ± 0.006.

Turning to UAGUGAGUCACCUUCUCUGAGACAUUAUCA, the “pre-steady-state target cleavage rate” value was found to be 0.00196 ± 0.0078.

For the sequence UAGUGACAGUGCUUCUCACAGAGAUUAACA, the “pre-steady-state target cleavage rate” value turned out to be 0.00247 ± 0.0045.

As for UAGUGACAGACCUUCUCUGAGAGAUAACA, the “pre-steady-state target cleavage rate” value was 0.00185 ± 0.0063.

As for UAGUGUGUCACCUUUCUGAGAGAUUAACA, the “pre-steady-state target cleavage rate” value is 0.0596 ± 0.013.

Regarding UAGUGUGUGUGCUUCUCUGAGAGAUAUUGA, the “pre-steady-state target cleavage rate” value came to 0.000443 ± 0.014.

Regarding UAGUCUGUCACCUUCUCUGACUCAUAUUGA, the “pre-steady-state target cleavage rate” value stood at 0.000819 ± 0.0071.

“UAGUGACACACCUUCUGACUCUCUAAUUGA [g15:g22:cont:t1A]”: the “pre-steady-state target cleavage rate” value came to 0.00112 ± 0.0069.

Take UAGUGAGUACCUUCUCUGAGAGAUUAACA: the “pre-steady-state target cleavage rate” value is 0.113 ± 0.014.

On to UAGUGACAGUGGAUCUCUGAGACUAUAACA, for which the “pre-steady-state target cleavage rate” value worked out at 0.000799 ± 0.021.

UAGUGAGUCAGGAUCUCUGAGAGAUAUUGA: the “pre-steady-state target cleavage rate” value was 0.000326 ± 0.015.

As to UAGUCUGUCACCUUCUCUGACAGUUUAACA, the “pre-steady-state target cleavage rate” value came to 0.00252 ± 0.0046.

Consider UAGUGACAGUCCUUCUCUGAGAGAAAUACA, for which the “pre-steady-state target cleavage rate” value worked out at 0.000372 ± 0.014.

For UAGUGUGUCACCAAGUCUGAGAGAUUAUGA, the “pre-steady-state target cleavage rate” value is 0.000584 ± 0.01.

Turning to UAGUGACAGUGGUUCUCUGAGAGAUUAAGA, the “pre-steady-state target cleavage rate” value was found to be 0.000248 ± 0.015.

In the case of UAGUCUGUCACCUUCUCUGACUGAUUAACA, the “pre-steady-state target cleavage rate” value is 0.00248 ± 0.0042.

Take UAGUGACAGUGGAACUCUGAGAUGAUUAACA: the “pre-steady-state target cleavage rate” value turned out to be 0.000223 ± 0.027.

Consider UAGUGACAGUGGUUCUCUGAGAGAAUUAACA, for which the “pre-steady-state target cleavage rate” value was found to be 0.000613 ± 0.012.

Turning to UAGUGACUCACCUUCUCGAGAGAUUAACA, the “pre-steady-state target cleavage rate” value worked out at 0.02 ± 0.0065.

Turning to UAGUGAGUCACCUUCCUCUGAGAGAUUAACA, the “pre-steady-state target cleavage rate” value was found to be 0.148 ± 0.019.

Turning to UAGUGACAGACCUUCUCUGAGAGUUUUACA, the “pre-steady-state target cleavage rate” value stood at 0.00143 ± 0.0097.

Take UAGUCUGUCACGUUCUCUGAGUGAUUAACA: the “pre-steady-state target cleavage rate” value came to 0.00118 ± 0.004.

Turning to UAGUGACAGUGCUUCUCUCUGAGAUUAAGA, the “pre-steady-state target cleavage rate” value was determined as 0.000323 ± 0.014.

Consider UAGUGACAGUGGUUCUCUGAGAAAUUAACA, for which the “pre-steady-state target cleavage rate” value was determined as 0.000119 ± 0.037.

As to UAGUGACAGUCCUUCUGUGACAGAUUAACA, the “pre-steady-state target cleavage rate” value came out at 0.00187 ± 0.0045.

With UAGUCUGUCACCUUGACUGAGAGAUUUUGA, the “pre-steady-state target cleavage rate” value came to 0.000521 ± 0.015.

UAGUCUGUCACCUUCUCAGAGUGAUUAACA: the “pre-steady-state target cleavage rate” value is 0.00411 ± 0.0045.

As to UAGUGACAGUGGAUGUCUGAGAGAUUAACA, the “pre-steady-state target cleavage rate” value worked out at 0.000991 ± 0.0031.

Consider UAGUGACAGUCCUUCUCUGAGAGAAUAUCA, for which the “pre-steady-state target cleavage rate” value was determined as 0.000243 ± 0.02.

As for UAGUGAGUCACCUUCUCUGUCUGAUUAAGA, the “pre-steady-state target cleavage rate” value turned out to be 0.00143 ± 0.012.

In the case of UAGUGUGUCUCCUUCUCUGAGACAUUAACA, the “pre-steady-state target cleavage rate” value stood at 0.00482 ± 0.0038.

For the sequence UAGUGAGUCACCUUCUCUGAGAGACUUAACA, the “pre-steady-state target cleavage rate” value turned out to be 0.137 ± 0.032.

Take UAGUCUGUCUCCUUCUCUGAGUGAUUAACA: the “pre-steady-state target cleavage rate” value was 0.00144 ± 0.0043.

With UAGUCUGUCACCAACUCUGAGAGAUAUUGA, the “pre-steady-state target cleavage rate” value amounted to 0.000437 ± 0.0074.

As to UAGUGACAGUGGAAGAGAGACACAUUAACA, the “pre-steady-state target cleavage rate” value is 0.000261 ± 0.029.

As to UAGUGACAGUGCUUCUCAGAGAGUUUAACA, the “pre-steady-state target cleavage rate” value worked out at 0.00211 ± 0.0054.

Take UAGUGAGUCACCUUCUCUGAGACUAUAUGA: the “pre-steady-state target cleavage rate” value was 0.00135 ± 0.0086.

For UAGUGACUCACGUUCUCUGAGAGAUAUUGA, the “pre-steady-state target cleavage rate” value is 0.000101 ± 0.031.

Turning to UAGUGACAGUGGUUCUCUGAGAGAUUAGACA, the “pre-steady-state target cleavage rate” value is 0.000791 ± 0.0076.

With UAGUGACAGUCCUUCUCGUGAGAGAUUAACA, the “pre-steady-state target cleavage rate” value was found to be 0.000837 ± 0.009.

As for UAGUGACUCACCUUCUCUGACUCAUUAACA, the “pre-steady-state target cleavage rate” value is 0.00102 ± 0.009.

As to UAGUCUGUGUCCUUCUCUGAGAGAUUUUGA, the “pre-steady-state target cleavage rate” value turned out to be 0.00127 ± 0.0056.

For UAGUGUGUCAGGUUCUCUGAGAGAUUUUGA, the “pre-steady-state target cleavage rate” value is 0.00129 ± 0.01.

As to UAGUGAGUCACCUUCAGUGAGAGAUUUUGA, the “pre-steady-state target cleavage rate” value was 0.00533 ± 0.0054.

Consider UAGUGACAGUGGAAGAGUGAGACAUAAACA, for which the “pre-steady-state target cleavage rate” value is 0.000203 ± 0.029.

Consider UAGUGACAGACGAUCUCUGAGAGAUUAUGA, for which the “pre-steady-state target cleavage rate” value was determined as 0.000522 ± 0.013.

The values above are taken from the supplement of paper PMC10338343.
